# Laboratory results from publication PMC12431657, “Discovery and mechanistic insights of dibenzoylmethane as a broad spectrum inhibitor of coronavirus” (PLOS Pathogens, 2025).
# Where two headings read alike, the source gives them in different places. The whole screen tested about 3,300 compounds, of which about 60 (2%) showed an effect of 50% or more. The list shows a part of the results. Numbered stars: 1 amine (or outer) side, 2 acyl side, 3 side chain; on linkers, the order of the positions; unused ones are H or OH. Bridge positions count the residues as written; N and C are the ends. Square brackets hold non-standard residues; d marks the D form. Peptide text beside a SMILES is read from it. * marks the point of attachment. Orn(4R-OH,5R-OH) = O=C([C@H](C[C@@H](O)[C@@H](O)N[*:3])N[*:1])[*:2]; Tetradecanoyl(10R,12S-Me2) = CC[C@H](C)C[C@H](C)CCCCCCCCC(=O)*; hTyr(3S-OH,4S-OH) = N[C@H](C(=O)O)[C@H](O)[C@@H](O)c1ccc(O)cc1; Gln(3R-OH) = NC(=O)C[C@@H](O)[C@H](N)C(=O)O; Pro(3S-OH) = O=C(O)[C@H]1NCC[C@@H]1O; Hyp = O=C(O)[C@@H]1C[C@@H](O)CN1
# Test system: HCoV-OC43
# Parameters: species or system RD; HTS, protection from HCoV-OC43 induced cell death, luminescent cell viability (CellCounting-Lite 2.0), inhibition rate
# Conditions: 24 h post infection, 1 h compound pre-incubation, 10 µM, inhibitor
SMILES,OC43 Inhibition rate [%],"OC43 Inhibition rate (OC43 Inhibition rate, 24 h) [%]"
NC(=O)c1ccc[n+]([C@@H]2O[C@H](COP(=O)([O-])O)[C@@H](O)[C@H]2O)c1 [β-Nicotinamide mononucleotide],-0.9,
Cc1ncc(COP(=O)(O)O)c(C=O)c1O [Pyridoxal phosphate],,-0.7
CCCCCC/C=C\CCCCCCCC(=O)OC [Methyl palmitoleate],-0.6,
CC(C)(N)C(=O)O [NSC 16590],0.1,
COc1c(O[C@@H]2O[C@H](C(=O)O)[C@@H](O)[C@H](O)[C@H]2O)cc(O)c2c(=O)cc(-c3ccccc3)oc12 [Wogonoside],0.2,
"COc1cc2oc(-c3ccccc3)cc(=O)c2c(OC)c1OC [5,6,7-Trimethoxyflavone]",0.1,
C[C@@H]1C[C@H]2O[C@@]3(O[C@@H]2C(C)(C)O)[C@H](O)[C@@]2(C)[C@@H]4CC[C@H]5C(C)(C)[C@@H](O)CC[C@@]56C[C@@]46CC[C@]2(C)[C@@H]13 [Cimigenol],8.4,
C[C@H](CC[C@@]1(O)O[C@H]2C[C@H]3[C@@H]4CC=C5C[C@@H](O[C@@H]6O[C@H](CO)[C@@H](O)[C@H](O[C@@H]7O[C@H](CO)[C@@H](O)[C@H](O)[C@H]7O)[C@H]6O[C@@H]6O[C@@H](C)[C@H](O)[C@@H](O)[C@H]6O)CC[C@]5(C)[C@H]4CC[C@]3(C)[C@H]2[C@@H]1C)CO[C@@H]1O[C@H](CO)[C@@H](O)[C@H](O)[C@H]1O [Protogracillin],0.4,
O=C1c2cc(CO)cc(O)c2C(=O)c2c(O[C@@H]3O[C@H](CO)[C@@H](O)[C@H](O)[C@H]3O)cccc21 [Aloe-emodin-8-O-β-D-glucopyranoside],3.4,
C=C(C)[C@H](CC=C(C)C)Cc1c(O)cc(OC)c2c1O[C@H](c1ccc(O)cc1OC)CC2=O [(2S)-2'-Methoxykurarinone],98.5,
C=CCC1=C[C@]2(OC)C(=O)C(OC)(OC)[C@H]1[C@@H]1C(OC)(OC)C(=O)C(OC)=C[C@@]12CC=C [Asatone],1.4,
O=Cc1ccoc1 [3-Furaldehyde],-1.5,
CC1(C)O[C@H]1COc1c2ccoc2cc2oc(=O)ccc12 [Oxypeucedanin],0.5,
O=C1c2cccc(O)c2C(=O)c2c(O)cc(CO)cc21 [Aloe emodin],-1.1,
O=C(O)[C@H](O)[C@@H](O)C(=O)O [L-Tartaric acid],,0
"CC[C@H](C)C[C@H](C)CCCCCCCCC(=O)N[C@H]1C[C@@H](O)[C@@H](O)NC(=O)[C@@H]2[C@@H](O)CCN2C(=O)[C@H]([C@H](O)CC(N)=O)NC(=O)[C@H]([C@H](O)[C@@H](O)c2ccc(O)cc2)NC(=O)[C@@H]2C[C@@H](O)CN2C(=O)[C@H]([C@@H](C)O)NC1=O [Pneumocandin B0] ({Tetradecanoyl(10R,12S-Me2)}-[Orn(4R-OH,5R-OH)]T[Hyp][hTyr(3S-OH,4S-OH)][Gln(3R-OH)][Pro(3S-OH)]; lactam 1-C)",1.9,
O=C(O)CNC(=O)c1ccccc1 [Hippuric acid],-1.7,
O=C(O)[C@@H]1Cc2nc[nH]c2CN1 [Spinacine],1.1,
COc1cc2c(CCNC(C)=O)c[nH]c2cc1O [6-Hydroxymelatonin],-0.8,

# At a glance, some entries already given:
SMILES,OC43 Inhibition rate [%],"OC43 Inhibition rate (OC43 Inhibition rate, 24 h) [%]"
C[C@H](CC[C@@]1(O)O[C@H]2C[C@H]3[C@@H]4CC=C5C[C@@H](O[C@@H]6O[C@H](CO)[C@@H](O)[C@H](O[C@@H]7O[C@H](CO)[C@@H](O)[C@H](O)[C@H]7O)[C@H]6O[C@@H]6O[C@@H](C)[C@H](O)[C@@H](O)[C@H]6O)CC[C@]5(C)[C@H]4CC[C@]3(C)[C@H]2[C@@H]1C)CO[C@@H]1O[C@H](CO)[C@@H](O)[C@H](O)[C@H]1O [Protogracillin],0.4,
O=C1c2cc(CO)cc(O)c2C(=O)c2c(O[C@@H]3O[C@H](CO)[C@@H](O)[C@H](O)[C@H]3O)cccc21 [Aloe-emodin-8-O-β-D-glucopyranoside],3.4,

# (continued)

SMILES,OC43 Inhibition rate [%],"OC43 Inhibition rate (OC43 Inhibition rate, 24 h) [%]"
O=C(O)[C@@H](O)[C@@H](O)[C@H](O)[C@@H](O)C(=O)O [D-Glucaric acid (potassium)],-8,
O=c1c(O)c(-c2ccccc2)oc2ccccc12 [Flavonol],0,
Oc1cc(O)cc(/C=C/c2ccccc2)c1 [Pinosylvin],0.4,
C[C@@H]1CC[C@@]2(OC1)O[C@H]1C[C@H]3[C@@H]4CC[C@H]5C[C@@H](O)CC[C@]5(C)[C@H]4CC[C@]3(C)[C@H]1[C@@H]2C [Tigogenin],0.6,
CCOC(=O)CCC(=O)OCC [Diethyl succinate],-2.1,
CC(C)(O)CC[C@@H](O)[C@](C)(O)[C@H]1CC[C@@]2(O)C3=CC(=O)[C@@H]4C[C@@H](O)[C@@H](O)C[C@]4(C)[C@H]3[C@H](O)C[C@]12C [Turkesterone],-2,
COc1cc(/C=C/C(=O)OCC[N+](C)(C)C)cc(OC)c1O [Sinapine],-1.2,
CC[C@]12C=CCN3CC[C@]4(C(=C(C(=O)OC)C1)Nc1ccccc14)[C@@H]32 [Tabersonine],0,
COc1c(CC=C(C)C)c(O)cc2oc(=O)c(-c3ccc(O)cc3O)cc12 [Glycycoumarin],0.9,
"O=C(N[C@@H](c1ccccc1)[C@@H](O)C(=O)O)c1ccccc1 [N-Benzoyl-(2R,3S)-3-phenylisoserine]",0.3,
O=C1c2ccccc2C(=O)c2ccccc21 [Anthraquinone],-0.3,
CO[C@@H]1[C@@H](O[C@@H]2O[C@H](C)[C@@H](O[C@H]3C[C@@](C)(O)[C@@H](O)[C@H](C)O3)[C@H](N(C)C)[C@H]2O)[C@@H](CC=O)C[C@@H](C)[C@@H](O[C@H]2CC[C@H](N(C)C)[C@@H](C)O2)/C=C/C=C/C[C@@H](C)OC(=O)C[C@H]1O [Spiramycin I],0.5,
O=C(O)/C=C(/CC(=O)O)C(=O)O [(Z)-Aconitic acid],0,
Nc1ncnc(N[C@@H]2O[C@H](CO)[C@@H](O)[C@H]2O)c1[N+](=O)[O-] [Clitocine],-0.9,
Nc1ccc(O)c(C(=O)O)c1 [5-Aminosalicylic Acid],0.7,
COc1cc([C@H]2OC[C@H]3[C@@H]2CO[C@H]3c2ccc(OC)c(OC)c2)ccc1O [Phillygenin],-1.3,
CC(=O)O[C@H]1Cc2cc3c(cc2[C@H]2N(C)Cc4c(ccc5c4OCO5)[C@@]12C)OCO3 [Acetylcorynoline],0.8,
COc1cc(-c2coc3cc(O[C@@H]4O[C@H](CO)[C@@H](O)[C@H](O)[C@H]4O)c(OC)c(O)c3c2=O)ccc1O [Iristectorin B],3.2,
